Earlier results, collected in patent publication US20110053907A1, “SUBSTITUTED PYRIMIDINES AND TRIAZINES AND THEIR USE IN CANCER THERAPY” (Auckland UniServices Limited, priority 2008, published 2011).
At least one structure is not confirmed: it was looked up by name or label, or the drawing left a doubt.

System: PI3K isoforms
Conditions: literature; cited from earlier work

With `COC[C@H]1OC(=O)c2coc3c2[C@@]1(C)C1=C(C3=O)[C@@H]2CCC(=O)[C@@]2(C)C[C@H]1OC(C)=O` [wortmannin] as the compound, how does the PI3K isoform selectivity read?
The PI3K isoform selectivity was “not selective for individual PI3K isoforms”.

And the “mode of PI3K inhibition (reversible / irreversible)” value?
The value was “irreversible activity”.
